Results deposited as PubChem BioAssay AID504764 (Drosophila RNAi Screening Center, 2011)
Assay: 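Knock-downs that raise or lower a Notch target reporter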 (primary screen). System: Drosophila Kc167 cells. Reagent: long dsRNA against Drosophila genes. Duration: about 5 days (4 days dsRNA, then 24 h after transfection). Treatment: transfection of constitutively active membrane-tethered Notch lacking the extracellular domain, read 24 h later. Measured: 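Firefly luciferase from an E(spl)m3 reporter with active Notch, plus control-promoter and uninduced reporter wells for normalisation; unnormalised counts, duplicate wells a and b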. Reading the numbers: induced reporter light, run 1, well a and induced reporter light, run 1, well b: higher = more light from the Notch target reporter with active Notch; control promoter light, run 1, well a and control promoter light, run 1, well b: higher = more light from the viral control promoter (cell number, transfection, viability); uninduced reporter light, run 1, well a: higher = more light from the Notch target reporter without active Notch. Call rule: 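Wells with low control signal or poorly matching duplicates excluded; duplicates averaged; per source plate, z beyond ±2 for induced/control log2 ratio or beyond ±1.8 for induced/uninduced marks a hit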. Calls: active = modifier hit (raised or lowered Notch signal); inactive = not a hit.
The screen tested about 22,000 reagents; below is a random part of those with a known target gene and a result. Of all reagents, 403 (1.9%) were called active. 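Unnormalised raw counts per well; ratio z-scores behind the hit calls and whether each hit raises or lowers signal are not deposited.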 A plus sign joins genes that one reagent is predicted to hit. The record does not give: the amount of reagent.

| target | dsRNA | induced reporter light, run 1, well a | induced reporter light, run 1, well b | control promoter light, run 1, well a | control promoter light, run 1, well b | uninduced reporter light, run 1, well a | activity call |
| --- | --- | --- | --- | --- | --- | --- | --- |
| CG30460 | DRSC06559 | 1.00e5 | 84905 | 1.39e5 | 1.14e5 | 8370 | inactive |
| CG30460 | DRSC06560 | 5660 | 9210 | 9432 | 9970 | 3910 | inactive |
| CG4914 | DRSC10458 | 2.00e5 | 1.40e5 | 2.43e5 | 2.02e5 | 10600 | inactive |
| GC2 | DRSC14476 | 92600 | 74340 | 85200 | 54085 | 5085 | inactive |
| Hrd3 | DRSC14156 | 1.89e5 | 1.95e5 | 2.31e5 | 2.36e5 | 15150 | inactive |
| obst-A | DRSC20543 | 1.09e5 | 1.34e5 | 1.22e5 | 62610 | 10555 | inactive |
| CG5731 | DRSC02883 | 1.33e5 | 1.72e5 | 86850 | 1.23e5 | 17595 | inactive |
| CG42676 | DRSC08227 | 61700 | 54920 | 1.18e5 | 1.08e5 | 6995 | inactive |
| CG42676 | DRSC08392 | 1.35e5 | 1.46e5 | 1.84e5 | 1.79e5 | 5692 | inactive |
| CG8187 | DRSC07099 | 1.15e5 | 1.26e5 | 2.20e5 | 2.19e5 | 10170 | inactive |
| CG13251 | DRSC11699 | 1.71e5 | 1.28e5 | 1.26e5 | 90255 | 9285 | inactive |
| COX4 | DRSC02091 | 72120 | 83155 | 76855 | 74185 | 5025 | inactive |
| CG14502 | DRSC06473 | 81425 | 1.12e5 | 1.91e5 | 1.54e5 | 9010 | inactive |
| CG42586 + CG31775 | DRSC01413 | 19295 | 16040 | 10315 | 11015 | 3750 | inactive |
| Arpc3A | DRSC15596 | 1.93e5 | 2.16e5 | 1.82e5 | 1.80e5 | 13360 | inactive |
| p38c | DRSC22939 | – | – | – | – | – | inactive |
| Rab2 | DRSC05017 | 1.90e5 | 1.82e5 | 1.95e5 | 1.93e5 | 14755 | inactive |
| CG3513 | DRSC00608 | 1.73e5 | 1.55e5 | 1.93e5 | 1.55e5 | 8550 | inactive |
| CG32302 | DRSC08340 | 99525 | 1.02e5 | 1.85e5 | 1.46e5 | 6790 | inactive |
| Spn | DRSC07986 | 2.08e5 | 1.83e5 | 2.11e5 | 1.61e5 | 16185 | inactive |
| Spn | DRSC08490 | 80495 | 84455 | 1.37e5 | 1.34e5 | 7060 | inactive |
| Spn | DRSC08491 | 65480 | 99105 | 1.14e5 | 1.11e5 | 8135 | inactive |
| CG34429 | DRSC10120 | 1.62e5 | 1.37e5 | 2.17e5 | 1.80e5 | 8742 | inactive |
| Gbeta5 | DRSC17754 | 1.24e5 | 1.48e5 | 2.41e5 | 2.93e5 | 11785 | inactive |
| eIF3d2 | DRSC15651 | 1.46e5 | 1.39e5 | 1.44e5 | 1.36e5 | 11515 | inactive |
| CG3420 | DRSC04995 | 2.54e5 | 2.25e5 | 2.65e5 | 2.47e5 | 19270 | inactive |
| CG8534 | DRSC16439 | 1.40e5 | 1.39e5 | 1.42e5 | 1.29e5 | 10338 | inactive |
| l(2)10685 | DRSC00665 | 2.29e5 | 2.59e5 | 2.34e5 | 2.33e5 | 21200 | inactive |
| CG8379 | DRSC16414 | 83760 | 87985 | 97390 | 74380 | 6140 | inactive |
| E(spl)mgamma-HLH | DRSC16699 | 1.87e5 | 1.65e5 | 2.16e5 | 2.04e5 | 15920 | inactive |
| Nep5 | DRSC16004 | 1.90e5 | 1.88e5 | 2.29e5 | 2.66e5 | 13820 | inactive |
| Ir67b | DRSC09876 | 2.98e5 | 1.97e5 | 3.54e5 | 2.83e5 | 15300 | inactive |
| Usp14 | DRSC02853 | 2.16e5 | 2.45e5 | 1.60e5 | 1.89e5 | 14920 | inactive |
| CG8320 + ATPCL | DRSC07147 | 1.51e5 | 1.10e5 | 1.06e5 | 1.10e5 | 7660 | inactive |
| LManV | DRSC03223 | 1.70e5 | 1.85e5 | 1.82e5 | 1.98e5 | 14355 | inactive |
| CG14892 | DRSC15014 | 2.51e5 | 2.74e5 | 2.32e5 | 2.82e5 | 18140 | inactive |
| CG15545 | DRSC15083 | 1.24e5 | 1.06e5 | 1.58e5 | 1.65e5 | 9555 | inactive |
| CG15756 | DRSC19721 | 77405 | 71910 | 1.17e5 | 1.18e5 | 5235 | inactive |
| Capr | DRSC10346 | 1.66e5 | 1.64e5 | 1.99e5 | 1.88e5 | 9165 | inactive |
| 14-3-3epsilon | DRSC16370 | 1.14e5 | 1.16e5 | 1.91e5 | 1.79e5 | 10500 | active |
| Osi3 | DRSC12175 | 1.05e5 | 1.13e5 | 72790 | 79630 | 6820 | inactive |
| Dpck | DRSC12575 | 72040 | 85510 | 1.22e5 | 1.05e5 | 6500 | inactive |
| prd1 | DRSC15227 | 8942 | 7270 | 12105 | 9855 | 810 | inactive |
| brp | DRSC06245 | 1.50e5 | 1.69e5 | 1.98e5 | 1.92e5 | 14650 | inactive |
| brp | DRSC06246 | 1.70e5 | 1.45e5 | 1.86e5 | 2.02e5 | 15255 | inactive |
| brp | DRSC06801 | 1.76e5 | 1.61e5 | 2.06e5 | 2.12e5 | 16285 | inactive |
| CG2187 | DRSC15425 | 1.38e5 | 1.19e5 | 1.91e5 | 1.94e5 | 9545 | inactive |
| THADA | DRSC19675 | 1.05e5 | 1.22e5 | 1.05e5 | 42785 | 7430 | inactive |
| Vap33 | DRSC18384 | 1.88e5 | 1.80e5 | 2.69e5 | 2.72e5 | 13685 | inactive |
| CG34168 | DRSC01938 | 1.23e5 | 1.41e5 | 1.22e5 | 1.50e5 | 10235 | inactive |
